PubChem BioAssay AID743454 | Peter MacCallum Cancer Centre – 2014

Assay: 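Search for knock-downs that restore vorinostat killing in resistant colon cancer cells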 (primary screen)
Cell system: human HCT116-VR colon cancer cells, selected for vorinostat resistance
Reagents: siRNA pool against human genes, 40 nM siRNA pool
Duration: vorinostat for 24 h, read-out about 72 h after transfection
Treatment: vorinostat at 2.5 µM final
Detection: 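Cell viability by CellTiter-Fluor and caspase 3/7 activity by luminescence, each scaled to mock wells per plate, duplicates averaged, then robust z-scored over all plates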
Reading the numbers: viability robust z-score: higher = more viable cells than screen typical; caspase robust z-score: higher = more caspase 3/7 activity than screen typical
Active means: 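a knock-down is a hit when classed RV1 or RV2 for lowered viability, or CA1 or CA2 for caspase activation; those lethal without drug were dropped; hits were retested singly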
The deposit covers about 18,000 reagents; shown is a part drawn at random. 450 of all reagents (2.5%) were called active. 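Single biological run; no consistent viability z cut-off exists, so the class columns, not z-scores, define the calls.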 Unmarked entries are inactive. Reagent sequences are not shown.

For SERBP1, what does the deposit list?
viability hit class: no change; caspase hit class: no change; viability robust z-score: 1.1; caspase robust z-score: 3.68

For PTPRC, what does the deposit list?
viability hit class: no change; caspase hit class: no change; viability robust z-score: 0.66; caspase robust z-score: -0.53

For NFKBIE, how do the results read?
viability hit class: no change; caspase hit class: no change; viability robust z-score: -0.73; caspase robust z-score: -0.2

With ZNF510, what was measured?
viability hit class: no change; caspase hit class: no change; viability robust z-score: 0.01; caspase robust z-score: -0.84

For AKAP13, how do the results read?
viability hit class: no change; caspase hit class: no change; viability robust z-score: 1.25; caspase robust z-score: 1.06

What is on record for NOL12?
viability hit class: no change; caspase hit class: no change; viability robust z-score: -1.82; caspase robust z-score: 0.74

How did the screen score PPP1R12A?
viability hit class: no change; caspase hit class: no change; viability robust z-score: -1.39; caspase robust z-score: 1.24

What did the screen give for CHAT?
viability hit class: no change; caspase hit class: no change; viability robust z-score: 1.15; caspase robust z-score: -0.49

Which result is listed for RNF146?
viability hit class: no change; caspase hit class: no change; viability robust z-score: 0.85; caspase robust z-score: 0.43

Which result is listed for SETD3?
viability hit class: no change; caspase hit class: no change; viability robust z-score: -0.88; caspase robust z-score: -0.52

For STAMBP, how do the results read?
viability hit class: no change; caspase hit class: no change; viability robust z-score: -0.34; caspase robust z-score: 1.86

For HNRNPR, how do the results read?
viability hit class: no change; caspase hit class: no change; viability robust z-score: 1.1; caspase robust z-score: -0.08

Which result is listed for PDPK1?
viability hit class: no change; caspase hit class: no change; viability robust z-score: 0.2; caspase robust z-score: -0.34

With BRIP1, what does the deposit list?
viability hit class: no change; caspase hit class: no change; viability robust z-score: 0.18; caspase robust z-score: -0.73

With AQP11, how do the results read?
viability hit class: no change; caspase hit class: no change; viability robust z-score: 0.02; caspase robust z-score: 0.12

What did the screen give for GJB2?
viability hit class: no change; caspase hit class: no change; viability robust z-score: 0.29; caspase robust z-score: -0.5

How did the screen score ZNF284?
viability hit class: no change; caspase hit class: no change; viability robust z-score: 0.42; caspase robust z-score: 0.3

What did the screen give for LBX2?
viability hit class: no change; caspase hit class: no change; viability robust z-score: -1.26; caspase robust z-score: 0.75

With BCL7B, what was measured?
viability hit class: no change; caspase hit class: no change; viability robust z-score: -0.18; caspase robust z-score: 1.7

How did the screen score CPXM2?
viability hit class: no change; caspase hit class: no change; viability robust z-score: 0.02; caspase robust z-score: -0.03

For NPSR1, what does the deposit list?
viability hit class: no change; caspase hit class: no change; viability robust z-score: -0.81; caspase robust z-score: -1.16

3 consecutive entries already listed:
NOL12: viability hit class = no change; caspase hit class = no change; viability robust z-score = -1.82; caspase robust z-score = 0.74
PPP1R12A: viability hit class = no change; caspase hit class = no change; viability robust z-score = -1.39; caspase robust z-score = 1.24
CHAT: viability hit class = no change; caspase hit class = no change; viability robust z-score = 1.15; caspase robust z-score = -0.49
